# Measured values as given in the supplement of paper PMC10849652.
# Sequences of proteins named here, by UniProt entry; tags and fusion partners are left off. A change or cut given only in a name is not applied to a line headed by its entry.
# UniProt Q9Y2S6, whole entry, looked up: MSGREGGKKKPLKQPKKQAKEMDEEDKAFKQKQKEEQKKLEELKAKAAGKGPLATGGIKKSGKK
# UniProt Q86UE8, whole entry, looked up: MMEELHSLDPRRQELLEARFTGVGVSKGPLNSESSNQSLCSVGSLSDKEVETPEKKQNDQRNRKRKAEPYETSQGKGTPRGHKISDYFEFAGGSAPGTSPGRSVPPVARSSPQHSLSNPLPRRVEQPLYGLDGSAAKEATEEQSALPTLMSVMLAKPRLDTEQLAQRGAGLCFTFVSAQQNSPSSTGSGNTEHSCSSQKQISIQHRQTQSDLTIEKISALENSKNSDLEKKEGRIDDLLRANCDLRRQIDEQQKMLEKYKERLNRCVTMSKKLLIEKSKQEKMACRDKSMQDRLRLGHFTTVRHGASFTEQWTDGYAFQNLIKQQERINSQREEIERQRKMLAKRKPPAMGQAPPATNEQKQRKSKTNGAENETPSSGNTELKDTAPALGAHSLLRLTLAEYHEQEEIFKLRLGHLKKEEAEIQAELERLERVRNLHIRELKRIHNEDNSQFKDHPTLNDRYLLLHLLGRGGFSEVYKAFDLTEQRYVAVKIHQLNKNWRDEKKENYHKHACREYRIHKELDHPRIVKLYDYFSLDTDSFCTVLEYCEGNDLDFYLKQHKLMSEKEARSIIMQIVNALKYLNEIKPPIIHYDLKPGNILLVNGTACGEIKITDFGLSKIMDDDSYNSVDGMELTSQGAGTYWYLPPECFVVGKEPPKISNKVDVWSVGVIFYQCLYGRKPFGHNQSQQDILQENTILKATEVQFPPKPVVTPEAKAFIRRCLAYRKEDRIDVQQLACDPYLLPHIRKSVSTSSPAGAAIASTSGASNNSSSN
# UniProt Q5U3C3: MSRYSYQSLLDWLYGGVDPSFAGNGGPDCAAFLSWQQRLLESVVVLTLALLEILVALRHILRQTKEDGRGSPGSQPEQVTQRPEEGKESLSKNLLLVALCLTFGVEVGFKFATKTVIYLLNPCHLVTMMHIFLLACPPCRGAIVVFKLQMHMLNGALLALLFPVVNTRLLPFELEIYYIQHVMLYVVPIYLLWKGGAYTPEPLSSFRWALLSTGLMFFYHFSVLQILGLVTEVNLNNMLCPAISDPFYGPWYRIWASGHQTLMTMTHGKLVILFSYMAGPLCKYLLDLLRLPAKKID
# UniProt Q96B77: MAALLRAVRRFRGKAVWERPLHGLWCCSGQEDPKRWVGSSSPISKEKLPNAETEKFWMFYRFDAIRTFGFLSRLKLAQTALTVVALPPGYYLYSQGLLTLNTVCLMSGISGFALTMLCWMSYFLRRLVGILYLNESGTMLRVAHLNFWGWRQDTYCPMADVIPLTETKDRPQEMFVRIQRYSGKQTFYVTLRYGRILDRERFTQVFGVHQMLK
# UniProt Q12893: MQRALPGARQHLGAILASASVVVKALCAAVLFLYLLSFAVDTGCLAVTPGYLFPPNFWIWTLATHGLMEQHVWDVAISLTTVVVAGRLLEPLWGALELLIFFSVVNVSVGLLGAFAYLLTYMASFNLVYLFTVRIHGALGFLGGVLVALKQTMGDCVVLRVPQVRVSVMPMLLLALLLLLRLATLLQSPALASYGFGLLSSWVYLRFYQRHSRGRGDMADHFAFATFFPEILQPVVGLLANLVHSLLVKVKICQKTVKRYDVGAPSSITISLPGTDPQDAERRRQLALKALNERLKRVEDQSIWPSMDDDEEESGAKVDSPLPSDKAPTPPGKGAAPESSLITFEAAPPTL
# UniProt Q9Y3Q3: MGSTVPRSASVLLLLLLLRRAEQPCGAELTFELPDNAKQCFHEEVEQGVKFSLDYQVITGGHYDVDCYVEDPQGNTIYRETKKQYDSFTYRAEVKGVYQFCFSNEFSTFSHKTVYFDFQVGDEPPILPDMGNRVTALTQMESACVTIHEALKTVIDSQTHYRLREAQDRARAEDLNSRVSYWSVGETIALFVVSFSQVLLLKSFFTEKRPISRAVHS
# UniProt Q96MH6: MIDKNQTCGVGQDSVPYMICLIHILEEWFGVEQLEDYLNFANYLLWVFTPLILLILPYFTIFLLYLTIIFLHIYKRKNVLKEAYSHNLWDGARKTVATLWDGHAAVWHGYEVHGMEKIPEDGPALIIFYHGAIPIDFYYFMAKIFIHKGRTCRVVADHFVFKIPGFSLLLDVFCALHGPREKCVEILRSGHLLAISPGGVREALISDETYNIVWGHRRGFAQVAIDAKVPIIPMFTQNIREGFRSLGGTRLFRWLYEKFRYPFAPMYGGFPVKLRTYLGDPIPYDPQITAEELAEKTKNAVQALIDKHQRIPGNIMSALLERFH
# UniProt Q9H7F4: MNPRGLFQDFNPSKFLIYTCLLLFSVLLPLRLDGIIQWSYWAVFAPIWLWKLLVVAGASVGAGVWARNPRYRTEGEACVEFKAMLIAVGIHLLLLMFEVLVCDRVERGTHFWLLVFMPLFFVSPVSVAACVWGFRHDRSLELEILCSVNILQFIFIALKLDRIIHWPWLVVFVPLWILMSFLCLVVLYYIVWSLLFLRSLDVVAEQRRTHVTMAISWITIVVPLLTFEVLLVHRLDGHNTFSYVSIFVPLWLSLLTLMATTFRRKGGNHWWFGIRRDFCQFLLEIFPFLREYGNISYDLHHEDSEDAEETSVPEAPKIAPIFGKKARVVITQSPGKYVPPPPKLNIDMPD
# UniProt Q9UKI8: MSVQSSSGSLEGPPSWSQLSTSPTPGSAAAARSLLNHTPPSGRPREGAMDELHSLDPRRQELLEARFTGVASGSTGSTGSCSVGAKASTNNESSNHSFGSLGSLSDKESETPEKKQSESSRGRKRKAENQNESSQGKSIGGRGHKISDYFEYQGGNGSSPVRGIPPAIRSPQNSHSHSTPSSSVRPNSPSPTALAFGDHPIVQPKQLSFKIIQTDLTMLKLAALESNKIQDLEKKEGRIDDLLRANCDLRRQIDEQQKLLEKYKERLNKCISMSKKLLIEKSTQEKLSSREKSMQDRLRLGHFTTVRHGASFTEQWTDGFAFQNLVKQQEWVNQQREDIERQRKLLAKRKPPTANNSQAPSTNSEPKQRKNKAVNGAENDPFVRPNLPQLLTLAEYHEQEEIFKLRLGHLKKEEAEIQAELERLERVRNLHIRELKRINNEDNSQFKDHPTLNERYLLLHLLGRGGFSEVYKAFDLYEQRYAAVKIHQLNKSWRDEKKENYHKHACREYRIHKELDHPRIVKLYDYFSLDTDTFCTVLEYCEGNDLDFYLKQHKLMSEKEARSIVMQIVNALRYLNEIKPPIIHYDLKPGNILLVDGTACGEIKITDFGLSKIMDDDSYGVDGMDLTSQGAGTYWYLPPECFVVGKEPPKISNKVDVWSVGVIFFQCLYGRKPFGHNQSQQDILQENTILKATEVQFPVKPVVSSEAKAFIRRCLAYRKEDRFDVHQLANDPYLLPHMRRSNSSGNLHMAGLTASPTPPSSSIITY
# UniProt Q9NQ34: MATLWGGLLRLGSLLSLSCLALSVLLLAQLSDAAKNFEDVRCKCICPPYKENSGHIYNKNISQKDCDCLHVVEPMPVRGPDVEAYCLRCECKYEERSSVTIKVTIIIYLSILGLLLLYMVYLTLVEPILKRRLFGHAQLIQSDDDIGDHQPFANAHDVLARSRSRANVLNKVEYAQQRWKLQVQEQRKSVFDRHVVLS
# UniProt Q53S58: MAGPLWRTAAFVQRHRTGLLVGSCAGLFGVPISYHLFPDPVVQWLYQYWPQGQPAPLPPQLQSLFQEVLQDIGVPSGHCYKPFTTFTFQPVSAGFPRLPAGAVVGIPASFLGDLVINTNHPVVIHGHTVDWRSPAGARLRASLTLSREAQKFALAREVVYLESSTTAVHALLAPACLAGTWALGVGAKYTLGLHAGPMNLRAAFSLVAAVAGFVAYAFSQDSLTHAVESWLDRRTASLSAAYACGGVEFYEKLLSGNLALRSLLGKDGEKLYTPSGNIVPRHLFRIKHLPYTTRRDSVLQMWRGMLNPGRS
# UniProt Q86WV6: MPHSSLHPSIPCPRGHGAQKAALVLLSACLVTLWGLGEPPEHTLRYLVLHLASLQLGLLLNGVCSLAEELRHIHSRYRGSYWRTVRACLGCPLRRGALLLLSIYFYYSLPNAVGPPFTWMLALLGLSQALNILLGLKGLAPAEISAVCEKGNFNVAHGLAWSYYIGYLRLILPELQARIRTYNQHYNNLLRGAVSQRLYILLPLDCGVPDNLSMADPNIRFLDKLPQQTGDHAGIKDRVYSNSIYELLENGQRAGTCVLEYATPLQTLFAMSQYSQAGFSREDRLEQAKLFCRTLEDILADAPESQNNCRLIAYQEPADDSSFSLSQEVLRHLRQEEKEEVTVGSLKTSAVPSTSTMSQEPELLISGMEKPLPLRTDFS
# UniProt Q96A57: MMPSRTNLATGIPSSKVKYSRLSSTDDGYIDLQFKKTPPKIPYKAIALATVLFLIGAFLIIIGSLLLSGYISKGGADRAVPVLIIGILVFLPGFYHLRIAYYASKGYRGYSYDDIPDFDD
# UniProt Q9HD45: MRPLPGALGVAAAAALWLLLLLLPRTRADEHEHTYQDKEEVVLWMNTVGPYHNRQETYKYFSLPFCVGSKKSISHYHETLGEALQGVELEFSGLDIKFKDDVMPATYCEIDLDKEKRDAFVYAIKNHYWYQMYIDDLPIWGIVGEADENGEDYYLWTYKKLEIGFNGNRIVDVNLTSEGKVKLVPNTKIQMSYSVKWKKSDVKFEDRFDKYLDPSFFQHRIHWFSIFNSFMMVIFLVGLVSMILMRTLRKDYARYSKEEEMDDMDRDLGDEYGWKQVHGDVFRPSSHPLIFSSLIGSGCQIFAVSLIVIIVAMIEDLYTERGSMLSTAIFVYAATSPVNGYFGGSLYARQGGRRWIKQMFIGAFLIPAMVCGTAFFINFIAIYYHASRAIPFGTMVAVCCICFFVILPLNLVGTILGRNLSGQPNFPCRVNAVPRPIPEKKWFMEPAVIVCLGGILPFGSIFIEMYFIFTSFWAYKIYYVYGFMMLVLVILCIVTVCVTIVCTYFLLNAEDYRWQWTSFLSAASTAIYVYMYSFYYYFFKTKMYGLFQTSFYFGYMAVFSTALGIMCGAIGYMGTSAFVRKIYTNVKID
# UniProt O00220, whole entry, looked up: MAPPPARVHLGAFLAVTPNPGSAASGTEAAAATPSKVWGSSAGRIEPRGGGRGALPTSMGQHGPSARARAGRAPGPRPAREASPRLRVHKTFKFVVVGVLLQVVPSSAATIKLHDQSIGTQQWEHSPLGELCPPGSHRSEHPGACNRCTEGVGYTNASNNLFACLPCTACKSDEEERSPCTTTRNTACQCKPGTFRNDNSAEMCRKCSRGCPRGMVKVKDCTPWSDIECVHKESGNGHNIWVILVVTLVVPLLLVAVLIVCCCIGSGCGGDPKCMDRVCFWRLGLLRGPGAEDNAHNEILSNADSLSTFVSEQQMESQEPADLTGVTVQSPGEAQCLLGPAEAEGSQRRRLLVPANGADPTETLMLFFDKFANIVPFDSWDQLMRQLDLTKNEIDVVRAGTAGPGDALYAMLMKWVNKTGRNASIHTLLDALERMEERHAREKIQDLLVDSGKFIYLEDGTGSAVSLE
# UniProt P17152: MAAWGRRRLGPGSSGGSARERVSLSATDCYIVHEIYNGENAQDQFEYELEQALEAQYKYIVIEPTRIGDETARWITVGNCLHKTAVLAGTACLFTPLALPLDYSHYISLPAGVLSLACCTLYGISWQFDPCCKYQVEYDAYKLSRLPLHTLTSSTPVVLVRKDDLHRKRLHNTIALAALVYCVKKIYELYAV
# UniProt P57088: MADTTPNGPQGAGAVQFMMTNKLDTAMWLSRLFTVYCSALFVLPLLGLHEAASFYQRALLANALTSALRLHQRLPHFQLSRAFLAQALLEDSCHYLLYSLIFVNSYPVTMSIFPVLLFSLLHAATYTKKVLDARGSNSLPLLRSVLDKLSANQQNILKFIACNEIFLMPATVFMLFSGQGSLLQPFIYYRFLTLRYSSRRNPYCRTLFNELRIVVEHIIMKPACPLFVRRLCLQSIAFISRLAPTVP
# UniProt Q9BVC6: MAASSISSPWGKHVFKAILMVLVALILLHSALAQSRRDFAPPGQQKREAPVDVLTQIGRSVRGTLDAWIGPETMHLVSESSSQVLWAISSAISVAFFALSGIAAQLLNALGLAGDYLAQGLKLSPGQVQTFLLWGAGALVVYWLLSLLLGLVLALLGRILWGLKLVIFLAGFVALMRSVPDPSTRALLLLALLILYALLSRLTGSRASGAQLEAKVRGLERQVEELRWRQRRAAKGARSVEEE
# UniProt Q8NDZ6: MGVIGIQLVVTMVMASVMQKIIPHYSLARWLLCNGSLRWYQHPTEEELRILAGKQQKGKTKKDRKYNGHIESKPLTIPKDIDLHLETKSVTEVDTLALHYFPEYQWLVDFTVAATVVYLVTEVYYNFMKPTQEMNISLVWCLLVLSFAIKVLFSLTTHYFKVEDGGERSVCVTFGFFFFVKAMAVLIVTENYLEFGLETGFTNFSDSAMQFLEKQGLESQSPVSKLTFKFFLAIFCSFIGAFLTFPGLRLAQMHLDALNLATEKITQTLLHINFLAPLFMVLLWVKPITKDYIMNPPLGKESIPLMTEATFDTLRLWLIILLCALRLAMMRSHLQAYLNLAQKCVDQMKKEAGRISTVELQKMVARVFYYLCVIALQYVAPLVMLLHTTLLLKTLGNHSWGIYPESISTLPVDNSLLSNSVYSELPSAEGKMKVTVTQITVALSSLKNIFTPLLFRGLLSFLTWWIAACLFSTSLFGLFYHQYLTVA
# The list shows a part of the results.
# Key:
# Experiment in all cases: log2 fold change, soluble protein after heating vs DMSO (PISA); higher = thermal stabilisation; K562 cells, 10 uM, 30 min; active = over 0.2 and 3.5 SD of the protein, either way, in both replicates (recomputed)
# [1] = compound: COC1=CC=C(C=C1)CN2C=CC3=C2C=C(C=C3)C(=O)NO
# Summary of the method: (§1)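 Soluble protein was quantified by TMTpro 16plex LC-MS/MS after channel sums were equalised. It was obtained as the supernatant after 21,000xg for 90 min from pooled aliquots of K562 cells (2×10^6 cells/mL, 10 μM compound, 30 min) heated for 3 min across 48°C-58°C and extracted in PBS with 0.5% NP-40 at 4°C. Thermal stability values are relative to control samples and come from duplicates. They are given as log2 fold changes.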
# filanesib = compound: CON(C)C(=O)N1N=C(c2cc(F)ccc2F)S[C@@]1(CCCN)c1ccccc1 [filanesib]
# Summary of the method: as §1
# zotarolimus = compound: CO[C@H]1C[C@@H]2CC[C@@H](C)[C@@](O)(O2)C(=O)C(=O)N2CCCC[C@H]2C(=O)O[C@H]([C@H](C)C[C@@H]2CC[C@H](n3cnnn3)[C@H](OC)C2)CC(=O)[C@H](C)/C=C(\C)[C@@H](O)[C@@H](OC)C(=O)[C@H](C)C[C@H](C)/C=C/C=C/C=C/1C [zotarolimus]
# Summary of the method: as §1
# idasanutlin = compound: COc1cc(C(=O)O)ccc1NC(=O)[C@@H]1N[C@@H](CC(C)(C)C)[C@](C#N)(c2ccc(Cl)cc2F)[C@H]1c1cccc(Cl)c1F [idasanutlin]
# Summary of the method: as §1
# alisertib = compound: COc1cc(Nc2ncc3c(n2)-c2ccc(Cl)cc2C(c2c(F)cccc2OC)=NC3)ccc1C(=O)O [alisertib]
# Summary of the method: as §1
# [2] = compound: COc1cc2nc(-c3cc(F)ccc3O)nc(N[C@@H]3CNC[C@H]3C(C)(C)O)c2cc1OC
# Summary of the method: as §1
# gefitinib = compound: COc1cc2ncnc(Nc3ccc(F)c(Cl)c3)c2cc1OCCCN1CCOCC1 [gefitinib]
# Summary of the method: as §1
# [3] = compound: COc1cccc2cc(-c3nc([C@H]4CC[C@H](C(=O)O)CC4)n4ncnc(N)c34)[nH]c12
# Summary of the method: as §1
# lapatinib = compound: CS(=O)(=O)CCNCc1ccc(-c2ccc3ncnc(Nc4ccc(OCc5cccc(F)c5)c(Cl)c4)c3c2)o1 [lapatinib]
# Summary of the method: as §1
# pictilisib = compound: CS(=O)(=O)N1CCN(Cc2cc3nc(-c4cccc5[nH]ncc45)nc(N4CCOCC4)c3s2)CC1 [pictilisib]
# Summary of the method: as §1
Target,log2 fold change [1],log2 fold change (filanesib),log2 fold change (zotarolimus),log2 fold change (idasanutlin),log2 fold change (alisertib),log2 fold change [2],log2 fold change (gefitinib),log2 fold change [3],log2 fold change (lapatinib),log2 fold change (pictilisib)
TMEM160 (UniProt Q9NX00),inactive: -0.231,inactive: 0.102,inactive: -0.062,inactive: -0.047,inactive: -0.119,inactive: -0.075,inactive: 0.007,inactive: -0.087,inactive: -0.01,inactive: 0.253
TMA7 (UniProt Q9Y2S6),inactive: -0.001,inactive: 0.03,inactive: -0.046,inactive: -0.009,inactive: 0,inactive: 0.015,inactive: 0.042,inactive: 0.027,inactive: -0.131,inactive: -0.07
TMEM87B (UniProt Q96K49),inactive: -0.064,inactive: -0.046,inactive: -0.108,inactive: -0.05,inactive: -0.133,inactive: -0.002,inactive: 0.063,inactive: 0.036,inactive: 0.026,inactive: 0.055
TMEM161A (UniProt Q9NX61),inactive: -0.021,inactive: -0.148,inactive: -0.072,inactive: -0.167,inactive: 0.009,inactive: -0.033,inactive: -0.01,inactive: 0.051,inactive: 0.075,inactive: -0.106
TMEM167A (UniProt Q8TBQ9),inactive: 0.068,inactive: -0.051,inactive: -0.022,inactive: -0.023,inactive: 0.098,inactive: -0.076,inactive: 0.035,inactive: -0.031,inactive: 0.021,inactive: 0.038
TLK2 isoform 2 (UniProt Q86UE8),inactive: -0.019,inactive: 0.038,inactive: 0.032,inactive: 0.087,inactive: 0.115,inactive: -0.036,inactive: 0.007,inactive: 0.06,inactive: 0.041,inactive: -0.071
TMEM164 (UniProt Q5U3C3),inactive: 0.045,inactive: -0.306,inactive: -0.039,inactive: -0.031,inactive: 0.211,inactive: 0.098,inactive: -0.013,inactive: 0.198,inactive: -0.06,inactive: 0.008
TMEM186 (UniProt Q96B77),inactive: -0.078,inactive: -0.035,inactive: -0.09,inactive: -0.008,inactive: -0.014,inactive: -0.035,inactive: 0.001,inactive: 0.13,inactive: 0.081,–
TMEM115 (UniProt Q12893),inactive: -0.074,inactive: -0.064,inactive: -0.029,inactive: -0.114,inactive: 0.051,inactive: -0.001,inactive: 0.022,inactive: 0.056,inactive: 0.001,inactive: 0.036
TMED3 (UniProt Q9Y3Q3),inactive: -0.142,inactive: -0.128,inactive: -0.028,inactive: 0.013,inactive: -0.074,inactive: 0.038,inactive: 0.144,inactive: 0,inactive: 0.044,inactive: 0.063
TMEM68 (UniProt Q96MH6),inactive: 0.134,inactive: -0.059,inactive: -0.016,inactive: -0.059,inactive: -0.067,inactive: 0.001,inactive: 0,inactive: 0.06,inactive: 0.016,inactive: 0.07
TMEM199 (UniProt Q8N511),inactive: -0.042,inactive: -0.118,inactive: -0.04,inactive: -0.022,inactive: -0.012,inactive: -0.025,inactive: 0.015,inactive: 0.045,inactive: 0.002,inactive: 0.084
TMEM208 (UniProt Q9BTX3),inactive: -0.131,inactive: -0.254,inactive: -0.111,inactive: -0.137,inactive: 0.109,inactive: 0.019,inactive: -0.055,inactive: -0.146,inactive: -0.151,inactive: -0.17
TMEM185B (UniProt Q9H7F4),inactive: -0.117,inactive: -0.095,inactive: -0.015,inactive: 0.036,inactive: -0.029,inactive: -0.055,inactive: -0.099,inactive: 0.015,inactive: -0.03,inactive: 0.101
TLK1 (UniProt Q9UKI8),inactive: -0.011,inactive: -0.021,inactive: 0.019,inactive: -0.009,inactive: -0.023,inactive: -0.029,inactive: 0.006,inactive: 0.064,inactive: -0.018,inactive: -0.04
TMEM9B (UniProt Q9NQ34),inactive: 0.001,inactive: -0.039,inactive: 0.014,inactive: 0.036,inactive: -0.032,inactive: 0.011,inactive: -0.047,inactive: -0.068,inactive: -0.118,inactive: 0.07
TMEM177 (UniProt Q53S58),inactive: -0.037,inactive: -0.115,inactive: 0.019,inactive: -0.077,inactive: -0.199,inactive: -0.154,inactive: 0.077,inactive: 0.086,inactive: -0.016,inactive: 0.151
TMEM173 (UniProt Q86WV6),inactive: -0.177,inactive: 0.007,inactive: 0.025,inactive: -0.209,inactive: -0.073,inactive: 0.034,inactive: -0.013,inactive: -0.008,inactive: -0.062,inactive: -0.037
TMEM97 (UniProt Q5BJF2),inactive: -0.078,inactive: 0.032,inactive: -0.002,inactive: -0.028,inactive: -0.065,inactive: 0.008,inactive: -0.014,inactive: 0.108,inactive: -0.016,inactive: 0.021
TMEM230 isoform 2 (UniProt Q96A57),inactive: 0.037,inactive: -0.036,inactive: 0.06,inactive: 0.027,inactive: -0.091,inactive: -0.003,inactive: -0.001,inactive: -0.029,inactive: -0.057,inactive: -0.021
TMEM222 (UniProt Q9H0R3),inactive: -0.016,inactive: 0.062,inactive: -0.198,inactive: -0.036,inactive: -0.013,inactive: -0.025,inactive: -0.026,inactive: 0.05,inactive: -0.09,inactive: -0.152
TM9SF3 (UniProt Q9HD45),inactive: -0.025,inactive: 0.018,inactive: 0.019,inactive: 0.057,inactive: -0.06,inactive: 0.133,inactive: 0.107,inactive: 0.034,inactive: 0.008,inactive: 0.092
TNFRSF10A (UniProt O00220),inactive: -0.046,inactive: 0.028,inactive: -0.035,inactive: 0.058,inactive: -0.021,inactive: 0.024,inactive: -0.012,inactive: -0.002,inactive: -0.073,active: 0.304
TMEM11 (UniProt P17152),inactive: -0.039,inactive: -0.053,inactive: 0.024,inactive: -0.01,inactive: -0.116,inactive: 0.012,inactive: 0.071,inactive: 0.059,inactive: -0.002,inactive: 0.07
TMEM135 (UniProt Q86UB9),inactive: -0.107,inactive: -0.03,inactive: 0.002,inactive: 0.07,inactive: 0.024,inactive: -0.015,inactive: -0.054,inactive: 0.042,inactive: 0.02,inactive: 0.048
TMEM33 (UniProt P57088),inactive: -0.015,inactive: -0.097,inactive: 0.037,inactive: -0.077,inactive: -0.046,inactive: -0.146,inactive: 0.012,inactive: 0.049,inactive: 0.032,inactive: -0.004
TMEM14C (UniProt Q9P0S9),inactive: -0.043,inactive: 0.131,inactive: -0.084,inactive: 0,inactive: 0.087,inactive: -0.019,inactive: -0.028,inactive: 0.043,inactive: -0.124,inactive: 0.023
TMEM189-UBE2V1 (UniProt I3L0A0),inactive: -0.034,inactive: -0.051,inactive: -0.049,inactive: -0.024,inactive: -0.105,inactive: -0.048,inactive: -0.034,inactive: 0.112,inactive: 0.011,inactive: -0.026
TMEM109 (UniProt Q9BVC6),inactive: 0.009,inactive: -0.094,inactive: -0.046,inactive: 0.021,inactive: -0.036,inactive: 0.009,inactive: 0.013,inactive: 0.046,inactive: -0.088,inactive: 0.049
TMEM161B (UniProt Q8NDZ6),inactive: -0.055,inactive: -0.008,inactive: -0.035,inactive: -0.16,inactive: 0.006,inactive: 0.013,inactive: 0.087,inactive: -0.015,inactive: -0.056,inactive: 0.097

# Part of the list above in a different format.
Target	log2 fold change [1]	log2 fold change (filanesib)	log2 fold change (zotarolimus)	log2 fold change (idasanutlin)	log2 fold change (alisertib)	log2 fold change [2]	log2 fold change (gefitinib)	log2 fold change [3]	log2 fold change (lapatinib)	log2 fold change (pictilisib)
TMEM160 (UniProt Q9NX00)	inactive: -0.231	inactive: 0.102	inactive: -0.062	inactive: -0.047	inactive: -0.119	inactive: -0.075	inactive: 0.007	inactive: -0.087	inactive: -0.01	inactive: 0.253
TMA7 (UniProt Q9Y2S6)	inactive: -0.001	inactive: 0.03	inactive: -0.046	inactive: -0.009	inactive: 0	inactive: 0.015	inactive: 0.042	inactive: 0.027	inactive: -0.131	inactive: -0.07
TLK2 isoform 2 (UniProt Q86UE8)	inactive: -0.019	inactive: 0.038	inactive: 0.032	inactive: 0.087	inactive: 0.115	inactive: -0.036	inactive: 0.007	inactive: 0.06	inactive: 0.041	inactive: -0.071
TMEM164 (UniProt Q5U3C3)	inactive: 0.045	inactive: -0.306	inactive: -0.039	inactive: -0.031	inactive: 0.211	inactive: 0.098	inactive: -0.013	inactive: 0.198	inactive: -0.06	inactive: 0.008
TMEM208 (UniProt Q9BTX3)	inactive: -0.131	inactive: -0.254	inactive: -0.111	inactive: -0.137	inactive: 0.109	inactive: 0.019	inactive: -0.055	inactive: -0.146	inactive: -0.151	inactive: -0.17
TMEM177 (UniProt Q53S58)	inactive: -0.037	inactive: -0.115	inactive: 0.019	inactive: -0.077	inactive: -0.199	inactive: -0.154	inactive: 0.077	inactive: 0.086	inactive: -0.016	inactive: 0.151
TMEM173 (UniProt Q86WV6)	inactive: -0.177	inactive: 0.007	inactive: 0.025	inactive: -0.209	inactive: -0.073	inactive: 0.034	inactive: -0.013	inactive: -0.008	inactive: -0.062	inactive: -0.037
TMEM11 (UniProt P17152)	inactive: -0.039	inactive: -0.053	inactive: 0.024	inactive: -0.01	inactive: -0.116	inactive: 0.012	inactive: 0.071	inactive: 0.059	inactive: -0.002	inactive: 0.07
